Experimental data: the supplement of paper PMC12819154, “High-throughput peptide-centric local stability assay extends protein–ligand identification to membrane proteins, tissues and bacteria” (Nature Structural & Molecular Biology, 2025)
This is one part of the list. Small differences around the control level are noise.

Protein sequences, listed by entry. Tags and fused reporters are not part of them. Lines headed by an entry give the natural chain unless they say otherwise; changes in a name come on top.
UniProt Q6P6M7: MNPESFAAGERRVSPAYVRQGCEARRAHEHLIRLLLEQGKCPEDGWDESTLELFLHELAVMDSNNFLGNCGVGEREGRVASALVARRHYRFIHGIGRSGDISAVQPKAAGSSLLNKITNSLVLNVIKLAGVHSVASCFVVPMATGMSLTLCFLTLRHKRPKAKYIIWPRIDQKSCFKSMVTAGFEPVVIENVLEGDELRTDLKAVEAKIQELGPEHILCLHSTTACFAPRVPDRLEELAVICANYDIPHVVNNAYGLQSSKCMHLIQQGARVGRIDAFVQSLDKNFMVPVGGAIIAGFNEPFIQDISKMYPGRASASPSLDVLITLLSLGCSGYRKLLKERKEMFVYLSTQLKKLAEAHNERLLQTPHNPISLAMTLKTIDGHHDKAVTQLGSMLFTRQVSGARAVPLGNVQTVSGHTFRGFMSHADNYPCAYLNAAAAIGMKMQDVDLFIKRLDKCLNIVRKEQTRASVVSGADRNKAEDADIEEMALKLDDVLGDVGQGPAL
UniProt Q80XI3, whole entry: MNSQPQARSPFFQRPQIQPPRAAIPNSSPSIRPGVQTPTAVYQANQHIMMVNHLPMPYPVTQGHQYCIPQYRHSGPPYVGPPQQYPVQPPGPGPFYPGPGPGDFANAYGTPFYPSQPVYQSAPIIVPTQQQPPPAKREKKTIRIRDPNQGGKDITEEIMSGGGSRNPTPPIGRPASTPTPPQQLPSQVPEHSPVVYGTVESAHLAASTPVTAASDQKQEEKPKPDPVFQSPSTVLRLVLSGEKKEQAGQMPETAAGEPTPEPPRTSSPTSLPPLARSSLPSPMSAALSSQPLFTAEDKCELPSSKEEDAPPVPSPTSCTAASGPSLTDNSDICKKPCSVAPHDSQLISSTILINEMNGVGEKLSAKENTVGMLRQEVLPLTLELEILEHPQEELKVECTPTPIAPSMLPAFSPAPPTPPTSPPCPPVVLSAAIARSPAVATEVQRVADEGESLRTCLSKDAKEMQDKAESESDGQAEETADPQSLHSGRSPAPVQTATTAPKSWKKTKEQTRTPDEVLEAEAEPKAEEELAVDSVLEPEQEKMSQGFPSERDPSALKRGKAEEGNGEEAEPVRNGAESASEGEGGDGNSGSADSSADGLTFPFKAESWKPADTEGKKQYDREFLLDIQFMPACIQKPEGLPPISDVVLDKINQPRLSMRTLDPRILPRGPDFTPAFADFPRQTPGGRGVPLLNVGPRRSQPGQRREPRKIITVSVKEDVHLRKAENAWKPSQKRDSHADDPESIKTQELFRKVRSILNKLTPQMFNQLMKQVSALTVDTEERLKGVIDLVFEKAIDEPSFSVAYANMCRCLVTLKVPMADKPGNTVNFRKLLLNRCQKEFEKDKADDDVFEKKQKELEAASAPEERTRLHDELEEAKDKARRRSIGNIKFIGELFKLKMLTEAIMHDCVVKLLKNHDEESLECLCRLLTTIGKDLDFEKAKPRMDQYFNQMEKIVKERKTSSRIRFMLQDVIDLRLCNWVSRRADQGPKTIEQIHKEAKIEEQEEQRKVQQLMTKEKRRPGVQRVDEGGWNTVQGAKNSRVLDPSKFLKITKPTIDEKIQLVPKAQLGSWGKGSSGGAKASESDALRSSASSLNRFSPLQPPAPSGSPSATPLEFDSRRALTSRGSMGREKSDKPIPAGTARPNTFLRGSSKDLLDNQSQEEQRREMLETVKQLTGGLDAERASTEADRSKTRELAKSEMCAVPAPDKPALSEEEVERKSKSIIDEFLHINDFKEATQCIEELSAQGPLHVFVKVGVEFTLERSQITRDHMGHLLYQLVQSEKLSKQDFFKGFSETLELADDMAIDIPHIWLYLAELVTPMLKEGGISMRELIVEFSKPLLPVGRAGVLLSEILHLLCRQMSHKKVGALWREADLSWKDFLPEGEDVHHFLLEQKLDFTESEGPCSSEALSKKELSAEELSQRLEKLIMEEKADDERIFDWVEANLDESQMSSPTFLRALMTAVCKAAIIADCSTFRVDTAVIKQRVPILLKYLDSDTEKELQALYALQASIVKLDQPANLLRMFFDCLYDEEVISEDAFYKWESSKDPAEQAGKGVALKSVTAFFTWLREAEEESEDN
UniProt Q6NZJ6, whole entry: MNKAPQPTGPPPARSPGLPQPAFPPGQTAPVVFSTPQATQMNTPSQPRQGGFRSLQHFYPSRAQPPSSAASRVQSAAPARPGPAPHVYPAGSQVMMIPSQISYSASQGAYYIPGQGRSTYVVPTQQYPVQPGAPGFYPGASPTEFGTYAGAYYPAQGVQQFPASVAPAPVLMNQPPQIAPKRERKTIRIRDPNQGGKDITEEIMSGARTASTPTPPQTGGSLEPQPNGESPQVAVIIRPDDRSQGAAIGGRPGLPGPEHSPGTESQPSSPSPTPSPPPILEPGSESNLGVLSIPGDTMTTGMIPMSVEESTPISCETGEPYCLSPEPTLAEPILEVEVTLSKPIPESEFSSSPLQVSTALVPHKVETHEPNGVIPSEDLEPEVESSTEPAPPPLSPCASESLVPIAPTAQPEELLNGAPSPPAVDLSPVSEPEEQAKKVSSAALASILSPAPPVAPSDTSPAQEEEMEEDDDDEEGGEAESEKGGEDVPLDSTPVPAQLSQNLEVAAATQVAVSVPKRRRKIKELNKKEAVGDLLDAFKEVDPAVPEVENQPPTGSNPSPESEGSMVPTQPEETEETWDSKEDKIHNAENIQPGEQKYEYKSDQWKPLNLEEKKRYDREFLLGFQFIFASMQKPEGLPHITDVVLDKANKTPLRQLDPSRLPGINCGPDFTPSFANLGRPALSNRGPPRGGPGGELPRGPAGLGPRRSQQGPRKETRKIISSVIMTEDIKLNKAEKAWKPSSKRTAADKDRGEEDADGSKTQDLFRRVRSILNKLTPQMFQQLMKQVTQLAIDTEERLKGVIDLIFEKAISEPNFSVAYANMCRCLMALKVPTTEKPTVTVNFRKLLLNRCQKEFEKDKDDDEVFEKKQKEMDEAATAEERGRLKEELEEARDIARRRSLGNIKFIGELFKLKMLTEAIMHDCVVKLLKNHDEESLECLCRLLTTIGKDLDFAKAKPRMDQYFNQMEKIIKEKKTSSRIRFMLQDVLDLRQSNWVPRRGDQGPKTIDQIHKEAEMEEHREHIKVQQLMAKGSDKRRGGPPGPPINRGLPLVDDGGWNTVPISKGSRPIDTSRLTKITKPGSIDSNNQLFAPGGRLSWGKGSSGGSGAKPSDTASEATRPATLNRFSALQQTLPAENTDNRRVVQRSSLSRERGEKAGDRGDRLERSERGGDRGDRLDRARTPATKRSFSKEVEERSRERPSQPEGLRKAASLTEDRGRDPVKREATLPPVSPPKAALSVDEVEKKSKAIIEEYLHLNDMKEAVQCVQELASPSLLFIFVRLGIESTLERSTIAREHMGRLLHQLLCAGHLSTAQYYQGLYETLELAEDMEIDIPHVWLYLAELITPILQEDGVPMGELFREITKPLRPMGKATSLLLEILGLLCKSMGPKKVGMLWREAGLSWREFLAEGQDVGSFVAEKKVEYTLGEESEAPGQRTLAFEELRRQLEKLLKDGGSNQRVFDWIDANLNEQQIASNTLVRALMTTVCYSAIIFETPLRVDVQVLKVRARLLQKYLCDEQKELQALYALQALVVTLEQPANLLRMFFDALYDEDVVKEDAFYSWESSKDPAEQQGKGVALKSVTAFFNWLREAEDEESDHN
UniProt Q6PDN3, whole entry: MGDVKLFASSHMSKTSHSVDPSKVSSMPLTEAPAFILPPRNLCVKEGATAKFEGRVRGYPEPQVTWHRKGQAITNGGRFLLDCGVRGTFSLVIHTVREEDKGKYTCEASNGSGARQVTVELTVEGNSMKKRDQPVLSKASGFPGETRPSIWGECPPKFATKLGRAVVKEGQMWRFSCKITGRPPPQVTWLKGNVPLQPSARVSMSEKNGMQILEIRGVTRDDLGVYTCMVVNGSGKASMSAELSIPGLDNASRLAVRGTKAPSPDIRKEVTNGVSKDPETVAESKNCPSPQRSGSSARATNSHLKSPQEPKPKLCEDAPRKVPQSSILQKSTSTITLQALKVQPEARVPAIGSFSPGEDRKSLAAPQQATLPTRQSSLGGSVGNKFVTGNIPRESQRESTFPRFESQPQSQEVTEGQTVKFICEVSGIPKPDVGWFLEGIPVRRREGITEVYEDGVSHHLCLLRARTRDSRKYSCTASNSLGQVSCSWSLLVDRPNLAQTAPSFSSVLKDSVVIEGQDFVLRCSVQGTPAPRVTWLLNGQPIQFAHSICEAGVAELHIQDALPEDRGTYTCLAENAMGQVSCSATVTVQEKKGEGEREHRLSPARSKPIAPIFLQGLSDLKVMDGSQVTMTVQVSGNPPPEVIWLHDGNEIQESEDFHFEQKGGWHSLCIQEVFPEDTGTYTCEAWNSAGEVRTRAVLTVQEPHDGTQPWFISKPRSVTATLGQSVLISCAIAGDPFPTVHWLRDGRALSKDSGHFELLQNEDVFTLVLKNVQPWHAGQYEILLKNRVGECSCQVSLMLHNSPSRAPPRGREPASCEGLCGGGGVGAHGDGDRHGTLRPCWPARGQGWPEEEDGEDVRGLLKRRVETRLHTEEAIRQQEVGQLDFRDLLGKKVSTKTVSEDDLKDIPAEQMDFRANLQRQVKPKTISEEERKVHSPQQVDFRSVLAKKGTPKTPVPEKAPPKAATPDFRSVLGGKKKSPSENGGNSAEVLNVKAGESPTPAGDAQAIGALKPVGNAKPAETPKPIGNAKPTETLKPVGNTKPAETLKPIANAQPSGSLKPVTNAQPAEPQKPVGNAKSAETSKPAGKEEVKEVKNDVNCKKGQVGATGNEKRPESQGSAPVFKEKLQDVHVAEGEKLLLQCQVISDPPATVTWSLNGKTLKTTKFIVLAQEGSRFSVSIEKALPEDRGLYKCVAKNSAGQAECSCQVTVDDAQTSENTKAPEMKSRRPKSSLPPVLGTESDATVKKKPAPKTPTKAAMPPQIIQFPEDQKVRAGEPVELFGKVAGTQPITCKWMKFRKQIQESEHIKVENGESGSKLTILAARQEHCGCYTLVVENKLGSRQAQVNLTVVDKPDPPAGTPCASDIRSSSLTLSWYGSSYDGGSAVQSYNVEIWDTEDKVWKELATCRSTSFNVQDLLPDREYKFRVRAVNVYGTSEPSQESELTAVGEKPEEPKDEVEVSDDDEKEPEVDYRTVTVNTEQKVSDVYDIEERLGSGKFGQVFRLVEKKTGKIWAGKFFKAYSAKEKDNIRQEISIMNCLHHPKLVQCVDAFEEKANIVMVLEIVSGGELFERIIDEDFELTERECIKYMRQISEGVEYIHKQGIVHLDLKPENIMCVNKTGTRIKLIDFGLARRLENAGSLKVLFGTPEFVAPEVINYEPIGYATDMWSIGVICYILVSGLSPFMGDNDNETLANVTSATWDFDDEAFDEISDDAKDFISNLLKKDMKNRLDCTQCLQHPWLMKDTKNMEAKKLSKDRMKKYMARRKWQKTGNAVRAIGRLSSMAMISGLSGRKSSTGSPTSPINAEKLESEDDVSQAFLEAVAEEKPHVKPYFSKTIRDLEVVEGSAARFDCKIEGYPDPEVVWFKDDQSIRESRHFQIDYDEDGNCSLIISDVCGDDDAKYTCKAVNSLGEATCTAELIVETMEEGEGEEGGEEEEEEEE
UniProt Q6ZWX6, whole entry: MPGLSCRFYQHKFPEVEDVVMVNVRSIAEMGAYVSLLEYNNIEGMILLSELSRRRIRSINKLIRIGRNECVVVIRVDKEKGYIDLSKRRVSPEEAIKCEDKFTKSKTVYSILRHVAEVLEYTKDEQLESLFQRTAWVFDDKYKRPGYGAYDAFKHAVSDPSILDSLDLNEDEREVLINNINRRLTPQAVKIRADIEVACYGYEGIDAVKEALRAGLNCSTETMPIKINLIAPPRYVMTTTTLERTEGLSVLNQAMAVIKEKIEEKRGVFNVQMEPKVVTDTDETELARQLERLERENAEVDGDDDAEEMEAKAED
UniProt Q6PE15: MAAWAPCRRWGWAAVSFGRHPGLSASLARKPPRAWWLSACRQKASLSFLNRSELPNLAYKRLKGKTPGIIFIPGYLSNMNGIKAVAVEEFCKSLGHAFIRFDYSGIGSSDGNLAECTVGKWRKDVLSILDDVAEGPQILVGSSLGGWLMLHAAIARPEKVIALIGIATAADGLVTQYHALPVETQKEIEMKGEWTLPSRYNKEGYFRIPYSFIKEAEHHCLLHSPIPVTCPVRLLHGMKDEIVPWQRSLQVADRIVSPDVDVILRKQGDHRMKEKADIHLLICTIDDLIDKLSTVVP
UniProt Q6P6M5: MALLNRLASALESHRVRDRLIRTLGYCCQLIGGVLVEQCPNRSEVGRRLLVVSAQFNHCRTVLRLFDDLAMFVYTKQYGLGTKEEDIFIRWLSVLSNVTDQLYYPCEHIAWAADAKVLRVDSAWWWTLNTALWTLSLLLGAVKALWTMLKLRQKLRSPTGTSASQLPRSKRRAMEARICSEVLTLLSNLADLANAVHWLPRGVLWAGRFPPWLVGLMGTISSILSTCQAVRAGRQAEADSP

The targets below were run with CN[C@@H]1C[C@H]2O[C@@](C)([C@@H]1OC)n1c3ccccc3c3c4c(c5c6ccccc6n2c5c31)C(=O)NC4 [staurosporine] (assay: log2 fold change of pooled soluble protein (PISA), ligand vs vehicle (log2 ratio); higher = more thermally stabilized). Conditions: ligand concentration: 20 uM; assay format: PISA pool 52.9/55.5/58.6 C.

**Q.** How did the “log2 fold change of pooled soluble protein” value (“log2 fold change” below) turn out when UniProt Q811J3 was run?
**A.** The value was -0.757.

**Q.** Which “log2 fold change” value does the source give for UniProt Q6P6M7 here?
**A.** Its value is -0.00163.

**Q.** How did the “log2 fold change” value turn out when UniProt Q80UY1 was run?
**A.** The value was 0.0635.

**Q.** How did the “log2 fold change” value turn out when UniProt Q80WQ6 was run?
**A.** Its value is 0.244.

**Q.** How did the “log2 fold change” value turn out when UniProt Q6ZPR6 was run?
**A.** The value was 0.0952.

**Q.** Which “log2 fold change” value does the source give for UniProt Q6WVG3 here?
**A.** Its value is 0.173.

**Q.** Which “log2 fold change” value does the source give for UniProt Q80X80 here?
**A.** The value was -0.0543.

**Q.** For UniProt Q80WQ2, which “log2 fold change” value is on record?
**A.** Its value is -0.0184.

**Q.** How did the “log2 fold change” value turn out when UniProt Q6P5G6 was run?
**A.** Its value is -0.141.

**Q.** With UniProt Q7TNE3 as the target, how does the “log2 fold change” value read?
**A.** Its value is 0.147.

**Q.** With UniProt Q80XI3 as the target, how does the “log2 fold change” value read?
**A.** The value was -0.0865.

**Q.** How did the “log2 fold change” value turn out when UniProt Q6NZJ6 was run?
**A.** Its value is 0.0175.

**Q.** Which “log2 fold change” value does the source give for UniProt Q7TMK9 here?
**A.** Its value is 0.067.

**Q.** For UniProt Q6PDN3, which “log2 fold change” value is on record?
**A.** The value was 0.199.

**Q.** UniProt Q80VP1 was tested. Which “log2 fold change” value did it give?
**A.** Its value is -0.042.

**Q.** For UniProt Q80X90, which “log2 fold change” value is on record?
**A.** Its value is -0.0334.

**Q.** For UniProt Q6ZWX6, which “log2 fold change” value is on record?
**A.** Its value is 0.0159.

**Q.** With UniProt Q6Q477 as the target, how does the “log2 fold change” value read?
**A.** The value was -0.136.

**Q.** How did the “log2 fold change” value turn out when UniProt Q6PIE5 was run?
**A.** Its value is -0.146.

**Q.** UniProt Q7TSC1 was tested. Which “log2 fold change” value did it give?
**A.** Its value is -0.0567.

**Q.** How did the “log2 fold change” value turn out when UniProt Q80X19 was run?
**A.** Its value is -0.0738.

**Q.** Which “log2 fold change” value does the source give for UniProt Q6P5E4 here?
**A.** The value was 0.0311.

**Q.** With UniProt Q8BGB8 as the target, how does the “log2 fold change” value read?
**A.** The value was 0.0127.

**Q.** With UniProt Q8BGC4 as the target, how does the “log2 fold change” value read?
**A.** Its value is 0.0613.

**Q.** With UniProt Q80XN0 as the target, how does the “log2 fold change” value read?
**A.** The value was -0.0376.

**Q.** How did the “log2 fold change” value turn out when UniProt Q791T5 was run?
**A.** The value was 0.0698.

**Q.** For UniProt Q6PE15, which “log2 fold change” value is on record?
**A.** Its value is -0.105.

**Q.** UniProt Q80W47 was tested. Which “log2 fold change” value did it give?
**A.** Its value is -0.257.

**Q.** UniProt Q6PGL7 was tested. Which “log2 fold change” value did it give?
**A.** Its value is -0.0357.

**Q.** UniProt Q6P6J9 was tested. Which “log2 fold change” value did it give?
**A.** The value was -0.0976.

**Q.** How did the “log2 fold change” value turn out when UniProt Q7TSV4 was run?
**A.** The value was 0.0417.

**Q.** Which “log2 fold change” value does the source give for UniProt Q80UG1 here?
**A.** The value was 0.0644.

**Q.** How did the “log2 fold change” value turn out when UniProt Q8BGP6 was run?
**A.** Its value is -0.0776.

**Q.** For UniProt Q80U44, which “log2 fold change” value is on record?
**A.** The value was 0.011.

**Q.** With UniProt Q6P6M5 as the target, how does the “log2 fold change” value read?
**A.** The value was -0.122.
